{"source": "PubChem BioAssay AID256", "about": "(DTP/NCI, 2004)", "system": "CD2F1 mice, L1210 leukemia ip, survival T/C", "test": "NCI In Vivo Anticancer Drug Screen. Data for tumor model L1210 Leukemia (intraperitoneal) in CD2F1 (CDF1) mice", "settings": "T/C endpoint: mean survival time, higher T/C = longer survival", "summary_of_the_method": "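Antitumor effect is scored in animals hosting a serially transplanted tumor. Values compare compound-dosed animals against vehicle-only controls as a simple quotient.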", "key": {"[1]": {"settings": "dose: 300.0 mg/kg/injection, schedule: Q01DX001 (ip), vehicle: saline"}, "[2]": {"settings": "dose: 400.0 mg/kg/injection, schedule: Q01DX009 (ip), vehicle: saline with Tween-80"}, "[3]": {"settings": "dose: 200.0 mg/kg/injection, schedule: Q01DX009 (ip), vehicle: saline with Tween-80"}, "[4]": {"settings": "dose: 75.0 mg/kg/injection, schedule: Q01DX009 (ip), vehicle: Klucel (hydroxypropylcellulose) (HPC)"}}, "note": "The list shows only some results of the screen, not a fair sample: it gathers tests that were run many times, whatever their T/C, doses with no T/C, and many T/C values between a quarter and a half above the control. Other doses and runs of a compound stand elsewhere. T/C is the treated group as % of the vehicle group. Some entries give survivors of the animals treated and no T/C: the source files T/C as zero there, which appears to mark a toxic dose or a test without result, not a measured value. Some doses without a T/C left all or most animals alive at the check, yet need not have been tolerated: survival well below the control is almost never listed, so the zero probably covers shortened survival too. Counts of survivors are from the toxicity check (mostly the fifth day) where no day follows; animals may have died later. Schedules are NCI's codes, taken here to give the interval after Q, in days (D) or hours (H), and the number of doses after X. Where survival is the endpoint, this PubChem deposit counts one and a half times the control or more as active, and values a quarter to a half above the control carry no call in these data; other NCI protocols may use other cut-offs.", "data": [{"smiles": "CN(C)Cc1c(-c2ccccc2)c(CN(C)C)n2ccccc12", "values": [{"measurement": "survivor count", "setting": "dose: 150.0 mg/kg/injection, schedule: Q01DX001 (ip), vehicle: saline", "value": "0 of 6"}, {"measurement": "survivor count", "setting": "[1]", "value": "0 of 6"}]}, {"smiles": "CC(C)(C)CC(C)(C)c1ccc(OCCOc2ccccc2NS(=O)(=O)c2ccc(N)cc2)cc1", "values": [{"measurement": "survivor count", "setting": "dose: 400.0 mg/kg/injection, schedule: Q01DX001 (ip), vehicle: Klucel (hydroxypropylcellulose) (HPC)", "value": "6 of 6"}]}, {"smiles": "COC(=O)/C(O)=C/C(N)=O.COC(=O)/C(O)=C/C(N)=O.[Cu]", "values": [{"measurement": "survivor count", "setting": "dose: 75.0 mg/kg/injection, schedule: Q01DX001 (ip), vehicle: carboxymethylcellulose (CMC)", "value": "0 of 6"}, {"measurement": "survivor count", "setting": "dose: 150.0 mg/kg/injection, schedule: Q01DX001 (ip), vehicle: carboxymethylcellulose (CMC)", "value": "0 of 6"}, {"measurement": "survivor count", "setting": "dose: 300.0 mg/kg/injection, schedule: Q01DX001 (ip), vehicle: carboxymethylcellulose (CMC)", "value": "0 of 6"}]}, {"smiles": "Cc1ccc2c(c1)nc1c3ccccc3nnn21", "values": [{"measurement": "survivor count", "setting": "[1]", "value": "3 of 6"}]}, {"smiles": "CC(=O)C1=C(C)NC(C)=C(C(C)=O)C1C", "values": [{"measurement": "survivor count", "setting": "[2]", "value": "3 of 6"}]}, {"smiles": "CSc1nc(Cl)cc(/N=C/N(C)C)n1", "values": [{"measurement": "survivor count", "setting": "[2]", "value": "1 of 6"}]}, {"smiles": "CC(=O)Nc1cccc(C[P+](c2ccccc2)(c2ccccc2)c2ccccc2)c1", "values": [{"measurement": "survivor count", "setting": "dose: 400.0 mg/kg/injection, schedule: Q04DX003 (ip), vehicle: saline with Tween-80", "value": "0 of 3"}]}, {"smiles": "Cc1ccc(C(=O)NCCCOc2ccc(N3C(N)=NC(N)=NC3(C)C)cc2Cl)cc1S(=O)(=O)F", "values": [{"measurement": "survivor count", "setting": "[3]", "value": "0 of 6"}]}, {"smiles": "CCOC(=O)Nc1cc(NCCCCc2ccccc2)c(N)c(N)n1", "values": [{"measurement": "survivor count", "setting": "dose: 400.0 mg/kg/injection, schedule: Q01DX001 (ip), vehicle: saline with Tween-80", "value": "0 of 6"}]}, {"smiles": "O=C(c1ccccc1)C(Cl)Cl", "values": [{"measurement": "survivor count", "setting": "[3]", "value": "0 of 6"}]}, {"smiles": "C1CCN(P(N2CCCCC2)N2CCCCC2)CC1", "values": [{"measurement": "survivor count", "setting": "dose: 400.0 mg/kg/injection, schedule: Q04DX002 (ip), vehicle: saline", "value": "2 of 3"}]}, {"smiles": "CN(C)N=Nc1cccc(C(N)=O)c1", "values": [{"measurement": "T/C", "setting": "dose: 23.0 mg/kg/injection, schedule: Q01DX009 (ip), vehicle: Klucel (hydroxypropylcellulose) (HPC)", "value": "147 % of control"}, {"measurement": "T/C", "setting": "dose: 39.0 mg/kg/injection, schedule: Q01DX009 (ip), vehicle: Klucel (hydroxypropylcellulose) (HPC)", "value": "147 % of control"}, {"measurement": "T/C", "setting": "dose: 40.0 mg/kg/injection, schedule: Q01DX009 (ip), vehicle: Klucel (hydroxypropylcellulose) (HPC)", "value": "144 % of control"}, {"measurement": "T/C", "setting": "dose: 65.0 mg/kg/injection, schedule: Q01DX009 (ip), vehicle: Klucel (hydroxypropylcellulose) (HPC)", "value": "133 % of control"}, {"measurement": "survivor count", "setting": "dose: 160.0 mg/kg/injection, schedule: Q01DX009 (ip), vehicle: Klucel (hydroxypropylcellulose) (HPC)", "value": "6 of 6"}]}, {"smiles": "O=C(C[n+]1ccccc1)N/N=C/c1ccc(Cl)cc1", "values": [{"measurement": "survivor count", "setting": "[3]", "value": "3 of 6"}, {"measurement": "survivor count", "setting": "[2]", "value": "0 of 6"}]}, {"smiles": "O=C(C[n+]1cccc(C(=O)NCc2ccccc2)c1)Nc1ccccc1", "values": [{"measurement": "survivor count", "setting": "dose: 200.0 mg/kg/injection, schedule: Q04DX003 (ip), vehicle: saline", "value": "1 of 6"}, {"measurement": "survivor count", "setting": "dose: 400.0 mg/kg/injection, schedule: Q04DX003 (ip), vehicle: saline", "value": "0 of 6"}]}, {"smiles": "CN(N)C1CCCCC1", "values": [{"measurement": "survivor count", "setting": "[1]", "value": "3 of 6"}]}, {"smiles": "CN(CC#N)N=Nc1ccc(C(N)=O)cc1", "values": [{"measurement": "survivor count", "setting": "[4]", "value": "3 of 6"}, {"measurement": "survivor count", "setting": "dose: 150.0 mg/kg/injection, schedule: Q01DX009 (ip), vehicle: Klucel (hydroxypropylcellulose) (HPC)", "value": "0 of 6"}, {"measurement": "survivor count", "setting": "dose: 300.0 mg/kg/injection, schedule: Q01DX009 (ip), vehicle: Klucel (hydroxypropylcellulose) (HPC)", "value": "0 of 6"}]}, {"smiles": "CC(=O)Nc1cccc(C)n1", "values": [{"measurement": "survivor count", "setting": "[1]", "value": "2 of 6"}]}, {"smiles": "CC1(C)CN1P(=S)(N1CC1(C)C)N1CC1(C)C", "note": "(centres undefined)", "values": [{"measurement": "T/C", "setting": "dose: 225.0 mg/kg/injection, schedule: Q01DX001 (ip), vehicle: other", "value": "142 % of control"}, {"measurement": "survivor count", "setting": "dose: 500.0 mg/kg/injection, schedule: Q01DX001 (ip), vehicle: other", "value": "3 of 6"}]}, {"smiles": "C(CC1CO1)C1CO1", "note": "(centres undefined)", "values": [{"measurement": "T/C", "setting": "[4]", "value": "142 % of control"}, {"measurement": "survivor count", "setting": "dose: 112.5 mg/kg/injection, schedule: Q01DX009 (ip), vehicle: Klucel (hydroxypropylcellulose) (HPC)", "value": "3 of 6"}]}, {"smiles": "CCOc1ccc([NH-])c([NH-])c1.[Cl][Pt+2][Cl]", "values": [{"measurement": "survivor count", "setting": "dose: 20.0 mg/kg/injection, schedule: Q01DX009 (ip), vehicle: distilled water + Tween-80", "value": "5 of 6"}, {"measurement": "survivor count", "setting": "dose: 40.0 mg/kg/injection, schedule: Q01DX009 (ip), vehicle: distilled water + Tween-80", "value": "1 of 6"}]}]}
